Laboratory results from patent US11266578B2, “Composition, kit and method for coloring keratinous fibers” (Henkel AG & Co. KGaA, priority 2017, dated 2022).

Assay: Removal of coloring composition by coloring removal solutions, Example 5
Design: species or system yak
[1] = Table 12, 2% DBSA in Dodecane, 20 minutes
[2] = Table 12, 4% DBSA in Dodecane, 20 minutes
[3] = Table 13, 2% DBSA in Dodecane, 5 minutes
[4] = Table 13, 4% DBSA in Dodecane, 5 minutes
[5] = Table 12, 0.5% TBAF in NOP, 20 minutes
[6] = Table 12, 1% TBAF in NOP, 20 minutes
[7] = Table 12, 2% TBAF in NOP, 20 minutes
[8] = Table 13, 1% TBAF in NOP, 5 minutes
[9] = Table 13, 2% TBAF in NOP, 5 minutes

CCCCCCCCCCCCc1ccc(S(=O)(=O)O)cc1 [DBSA, 4-Dodecyl benzene sulfonic acid]
removal of coloring composition, Sample Green (A) [1]: + | removal of coloring composition, Sample Red (C) [1]: ++ | removal of coloring composition, Sample Silver (J) [1]: + | removal of coloring composition, Sample Green (A) [2]: ++ | removal of coloring composition, Sample Red (C) [2]: ++ | removal of coloring composition, Sample Silver (J) [2]: ++ | removal of coloring composition, Sample Green (A) [3]: + | removal of coloring composition, Sample Red (C) [3]: + | removal of coloring composition, Sample Silver (J) [3]: ++ | removal of coloring composition, Sample Green (A) [4]: ++ | removal of coloring composition, Sample Red (C) [4]: ++ | removal of coloring composition, Sample Silver (J) [4]: ++

CCCC[N+](CCCC)(CCCC)CCCC.[F-] [TBAF, Tetra butyl ammonium fluoride]
removal of coloring composition, Sample Green (A) [5]: ++ | removal of coloring composition, Sample Red (C) [5]: ++ | removal of coloring composition, Sample Silver (J) [5]: ++ | removal of coloring composition, Sample Green (A) [6]: ++ | removal of coloring composition, Sample Red (C) [6]: ++ | removal of coloring composition, Sample Silver (J) [6]: ++ | removal of coloring composition, Sample Green (A) [7]: ++ | removal of coloring composition, Sample Red (C) [7]: ++ | removal of coloring composition, Sample Silver (J) [7]: ++ | removal of coloring composition, Sample Green (A) [8]: + | removal of coloring composition, Sample Red (C) [8]: ++ | removal of coloring composition, Sample Silver (J) [8]: ++ | removal of coloring composition, Sample Green (A) [9]: ++ | removal of coloring composition, Sample Red (C) [9]: ++ | removal of coloring composition, Sample Silver (J) [9]: ++
